Reference: PubChem BioAssay AID1347426 (Functional Genomics Laboratory (NCATS/FGL), 2020)
Screen size: about 31,000 sequences; about 1,400 (4.5%) were called active.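 Rule for the calls: active = median seed-adjusted z-score above 1 or below -1; inactive = the rest.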 The list shows a part of the results.

Test: Novel Modifiers of Survival Motor Neuron (SMN) Protein: Gene Identification via Genome-wide siRNA Screen;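 note: luminescence tracks full-length SMN protein made from the SMN2 reporter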
Conditions: HEK293T SMN2-luciferase reporter, siRNA knockdown, 72 h; actives lie on both sides
Summary of the method: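 HEK293T cells stably carrying an SMN2 promoter/splicing cassette–luciferase reporter were reverse-transfected with 1 pmol siRNA per well (druggable-genome library, 3 siRNAs per gene) and grown 72 h at 37 °C. Luminescence, normalized to negative-control siRNA and log10-transformed, was scored as MAD.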

**Q.** Which median seed-adjusted z-score does the source give for GCUGGACCGUAAAAUUGAATT against PSMC4 here?
**A.** The median seed-adjusted z-score was inactive: -0.361.

**Q.** With GGGUUUUGCUGACAGCUCATT against ZNF48 as the sequence, how does the median seed-adjusted z-score read?
**A.** The median seed-adjusted z-score was inactive: -0.116.

**Q.** Which median seed-adjusted z-score does the source give for GGUCGAAGUGUACCCAGUATT against USP11 here?
**A.** The median seed-adjusted z-score was inactive: -0.0327.

**Q.** Which median seed-adjusted z-score does the source give for AGAGAUUCCUAUUGAAGGATT against TRIAP1 here?
**A.** Its median seed-adjusted z-score is inactive: 0.253.

**Q.** With GGCCGUCUAUAAUGCGAGATT against PLCL1 as the sequence, how does the median seed-adjusted z-score read?
**A.** Its median seed-adjusted z-score is inactive: 0.000254.

**Q.** With GCAACUUCUUAAGACUAAATT against DBR1 as the sequence, how does the median seed-adjusted z-score read?
**A.** Its median seed-adjusted z-score is inactive: 0.438.

**Q.** For GGUCAUAGAAGGUUAUGAATT against CCT8, which median seed-adjusted z-score is on record?
**A.** The median seed-adjusted z-score was inactive: -0.161.

**Q.** With GAUGGAGAGUAACCGCAGATT against TLX1 as the sequence, how does the median seed-adjusted z-score read?
**A.** The median seed-adjusted z-score was inactive: -0.815.

**Q.** For GUCUUGUAGUGGAGUGGAATT against VDAC3, which median seed-adjusted z-score is on record?
**A.** The median seed-adjusted z-score was inactive: 0.646.

**Q.** Which median seed-adjusted z-score does the source give for GAAUCAGCUUAGUCAAUGATT against SUV39H2 here?
**A.** Its median seed-adjusted z-score is inactive: -0.279.

**Q.** With CGCAAGGUAUUAACAAUCUTT against PPEF2 as the sequence, how does the median seed-adjusted z-score read?
**A.** The median seed-adjusted z-score was inactive: 0.354.

**Q.** Which median seed-adjusted z-score does the source give for AGGCUACCAUGACUAUUGATT against PPM1G here?
**A.** Its median seed-adjusted z-score is inactive: 0.073.

**Q.** With CCACUACAACGGCACUUUUTT against FKBP10 as the sequence, how does the median seed-adjusted z-score read?
**A.** Its median seed-adjusted z-score is inactive: 0.229.

**Q.** Which median seed-adjusted z-score does the source give for GCUCCACCGAUGACAAGAATT against ZNF683 here?
**A.** The median seed-adjusted z-score was inactive: -0.452.

**Q.** Which median seed-adjusted z-score does the source give for CAUCAAAACUUGGAGAGCATT against FN3K here?
**A.** The median seed-adjusted z-score was inactive: -0.508.

**Q.** Which median seed-adjusted z-score does the source give for AGAACAUAGAUGUUUUGGATT against VNN3 here?
**A.** Its median seed-adjusted z-score is inactive: 0.343.

**Q.** For AGAUCGUGCAGAUGAGUAATT against DGKQ, which median seed-adjusted z-score is on record?
**A.** The median seed-adjusted z-score was inactive: -0.0985.

**Q.** With GAGCAUUACGAAAAGGACATT against SLC22A16 as the sequence, how does the median seed-adjusted z-score read?
**A.** The median seed-adjusted z-score was inactive: 0.0878.

**Q.** With CAGCUGAUCCGAUUCCUGATT against IL4 as the sequence, how does the median seed-adjusted z-score read?
**A.** The median seed-adjusted z-score was inactive: -0.192.

**Q.** Which median seed-adjusted z-score does the source give for AGGGUUUUGUGAACCAGAATT against HYAL2 here?
**A.** Its median seed-adjusted z-score is inactive: 0.056.

**Q.** Which median seed-adjusted z-score does the source give for GUACCUCGUAAAUCACGAATT against NFAT5 here?
**A.** The median seed-adjusted z-score was inactive: 0.106.

**Q.** With CAUCCGAGCUUAUUGUACATT against TTPA as the sequence, how does the median seed-adjusted z-score read?
**A.** The median seed-adjusted z-score was inactive: -0.208.

**Q.** Which median seed-adjusted z-score does the source give for GGAAGAGUUGAAGCACAUUTT against CALN1 here?
**A.** The median seed-adjusted z-score was inactive: 0.0753.

**Q.** For GGAAGAUCCAAAUCCGCUATT against PPP1R13B, which median seed-adjusted z-score is on record?
**A.** Its median seed-adjusted z-score is inactive: 0.0943.

**Q.** Which median seed-adjusted z-score does the source give for GCUUUCAACGGGUCUGUCATT against P2RX4 here?
**A.** The median seed-adjusted z-score was inactive: 0.467.

**Q.** With CCCUUCUCAUUAGUAAGAUTT against TUBB4Q as the sequence, how does the median seed-adjusted z-score read?
**A.** The median seed-adjusted z-score was inactive: -0.0288.

**Q.** For CGGUUUCUACAUGCAGAGATT against HSPA1A, which median seed-adjusted z-score is on record?
**A.** Its median seed-adjusted z-score is inactive: -0.833.

**Q.** For CUAUAAGUCUAGUAGCAAATT against WNK2, which median seed-adjusted z-score is on record?
**A.** Its median seed-adjusted z-score is inactive: 0.212.

**Q.** For GCACUUUCAUAGACAACGATT against PON2, which median seed-adjusted z-score is on record?
**A.** Its median seed-adjusted z-score is inactive: 0.

**Q.** For GCAAGAGAAUUAGAUCAGATT against SLC16A12, which median seed-adjusted z-score is on record?
**A.** The median seed-adjusted z-score was inactive: 0.0219.

**Q.** Which median seed-adjusted z-score does the source give for GCGAGUACAUAGAUCGGAATT against ZDHHC23 here?
**A.** The median seed-adjusted z-score was inactive: -0.536.

**Q.** For CAGUGCACCAGAUCCAUAATT against MPP1, which median seed-adjusted z-score is on record?
**A.** Its median seed-adjusted z-score is inactive: -0.0762.

**Q.** For AUCGAAUCCUGAUACAGCATT against IDI2, which median seed-adjusted z-score is on record?
**A.** The median seed-adjusted z-score was inactive: 0.578.

**Q.** For GGACCAUACCCAUUGUCCATT against SHROOM1, which median seed-adjusted z-score is on record?
**A.** Its median seed-adjusted z-score is inactive: 0.0461.

**Q.** Which median seed-adjusted z-score does the source give for GACCGGCAAUUGUAGUACUTT against USO1 here?
**A.** The median seed-adjusted z-score was inactive: 0.21.

**Q.** For GCACAGUUCUACUCGAAAUTT against PCDHA3, which median seed-adjusted z-score is on record?
**A.** Its median seed-adjusted z-score is inactive: 0.311.

**Q.** Which median seed-adjusted z-score does the source give for CAGAGACAAUGAUAUCGCATT against TNN here?
**A.** The median seed-adjusted z-score was inactive: -0.122.

**Q.** For GAGACUUAAUUAGACGAAUTT against OSBPL11, which median seed-adjusted z-score is on record?
**A.** The median seed-adjusted z-score was inactive: 0.535.

**Q.** For GGCAAGUCUGGAUAACGAATT against RIPK3, which median seed-adjusted z-score is on record?
**A.** Its median seed-adjusted z-score is inactive: 0.123.

**Q.** With CACUCAUUUAUGAUGGAAATT against POLR3F as the sequence, how does the median seed-adjusted z-score read?
**A.** Its median seed-adjusted z-score is inactive: 0.

**Q.** With GGAAGGUUAGUGAUCGCUUTT against EXTL1 as the sequence, how does the median seed-adjusted z-score read?
**A.** Its median seed-adjusted z-score is inactive: 0.

**Q.** Which median seed-adjusted z-score does the source give for GCCGCAUCGUAGCUCGUAATT against RRAD here?
**A.** Its median seed-adjusted z-score is inactive: -0.267.

**Q.** With GGAUGUUGAUCAGAUGUUUTT against RAB3IP as the sequence, how does the median seed-adjusted z-score read?
**A.** Its median seed-adjusted z-score is inactive: -0.191.

**Q.** For GCUCCACCGAGAUUCCUGATT against TCEB1, which median seed-adjusted z-score is on record?
**A.** Its median seed-adjusted z-score is active: 1.08.

**Q.** With GAAUGAUCGAUUCAACUAUTT against TTBK2 as the sequence, how does the median seed-adjusted z-score read?
**A.** Its median seed-adjusted z-score is inactive: 0.423.

**Q.** For CCGUUCAACCUGACAGUAUTT against JAG1, which median seed-adjusted z-score is on record?
**A.** Its median seed-adjusted z-score is inactive: -0.32.

**Q.** Which median seed-adjusted z-score does the source give for GGAGGAGAGAAAUUCGACATT against MGRN1 here?
**A.** Its median seed-adjusted z-score is inactive: -0.318.

**Q.** With GGACGAAAGUGUGAACUAUTT against KCTD18 as the sequence, how does the median seed-adjusted z-score read?
**A.** The median seed-adjusted z-score was inactive: -0.0473.

**Q.** For GAGGAUUACUAAUUGAUCUTT against CHM, which median seed-adjusted z-score is on record?
**A.** The median seed-adjusted z-score was inactive: 0.743.

**Q.** With CACACCUCGUUGGACAUCATT against ZNF808 as the sequence, how does the median seed-adjusted z-score read?
**A.** The median seed-adjusted z-score was inactive: 0.138.

**Q.** With GAACUUUGUUGGGAGAAGUTT against TIMM8A as the sequence, how does the median seed-adjusted z-score read?
**A.** The median seed-adjusted z-score was inactive: 0.173.

**Q.** With GCUGCUUCAGACUACCAAATT against TXNDC9 as the sequence, how does the median seed-adjusted z-score read?
**A.** The median seed-adjusted z-score was inactive: -0.176.

**Q.** Which median seed-adjusted z-score does the source give for CGCCCAACCUUACUACCUUTT against TXNDC14 here?
**A.** The median seed-adjusted z-score was active: -2.39.

**Q.** For CUACAACUCUCCAAACGAATT against ACAD11, which median seed-adjusted z-score is on record?
**A.** Its median seed-adjusted z-score is inactive: -0.679.
